This is one part of the list. These are further read-outs of the screen, such as a control signal, another cell line or another target. No call is given for them. Compounds called inactive in the main read-out are mostly missing here. Words in brackets tell the shape of the fitted curve; partial curves, single points and poor fits give uncertain potencies.
Assay: qHTS Assay for Lipid Storage Modulators in Drosophila S3 Cells;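 as to cell number change: cells counted by Cell Tracker Red CMTPX staining in the red channel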
Conditions: BODIPY lipid droplet fluorescence, 18-24 h; for cell number change: measured here: cell count max response, cells fed with added oleic acid
Procedure, shortened: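 Laser-scanning cytometry quantifies lipid droplet accumulation (500–530 nm total intensity; droplet/cell object ratio) in oleic acid-fed (400 uM added) Drosophila S3 cells treated with a concentration series. 20 uM Triacsin C defined 100% inhibition.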

[1] = measured here: lipid fluorescence (Fed channel) AC50, cells fed with added oleic acid
[2] = measured here: cell number channel AC50, cells fed with added oleic acid

| Compound | cell number change | AC50 [1] | AC50 [2] |
| --- | --- | --- | --- |
| CCC1CCCCN1CCCNC(=O)CN1C(=O)c2cccnc2Oc2ccc(C)cc21 (stereo not drawn) | 26.6% | 29.1 µM [rising, single point] |  |
| CC(C)c1nc2sc3c(=O)[nH]c(=S)[nH]c3c2c2c1CCC2 |  | 18.4 µM [falling, partial curve] |  |
| CC(OC(=O)C1CC=CCC1C(N)=O)C(Cl)=C(Cl)Cl (stereo not drawn) | -14% | 29.1 µM [falling, single point] |  |
| COc1ccc(S(=O)(=O)N(C)c2ccc(C(N)=O)cc2)cc1 |  | 2.06 µM [falling, partial curve] |  |
| COC(=O)c1cc(NC(=O)CCc2c(C)nc3ncnn3c2C)cc(C(=O)OC)c1 | 26.2% |  |  |
| CCN(CC)S(=O)(=O)c1cc([N+](=O)[O-])ccc1NNC(=O)Nc1ccccc1OC | -38.7% | 6.51 µM [falling, single point] | 0.291 µM [falling, full curve] |
| CCCN(CC(=O)Nc1ccccc1C)C(=O)CCCNC(=O)c1ccc(Cl)cc1 | -5.39% |  | 1.3 µM [rising, full curve, poor fit] |
| CCC(CC)C(=O)Nc1cc(=O)n(C)c(=O)n1C | -2.46% | 2.31 µM [rising, full curve] |  |
| CCCN1CCC(Oc2cccc(C(=O)NCCc3ccccc3)c2)CC1 | -12% |  |  |
| O=C(CCC1CCCN(C(=O)c2ccc3cc[nH]c3c2)C1)N1CCN(c2ccccn2)CC1 (stereo not drawn) | -43.5% |  | 29.1 µM [falling, single point] |
| CC(C)(C)NS(=O)(=O)c1ccc(NC(=O)C2CCCCC2)cc1 | -12.9% | 18.4 µM [falling, partial curve, poor fit] |  |
| COc1ccc(Nc2nnc(-c3ccccc3)c3ccccc23)cc1C(=O)N1CCCCC1 | 7.42% |  | 0.206 µM [falling, full curve] |
| CCN(c1ccccc1)S(=O)(=O)c1ccc(NC(=S)NC(=O)c2cccs2)cc1 | -20% |  |  |
| CCc1ccc(-c2nc(CS(=O)CC(=O)NCc3cccnc3)c(C)o2)cc1 (stereo not drawn) | -10.3% | 4.61 µM [rising, partial curve] |  |
| O=C(COC(=O)c1ccc2c(c1)S(=O)(=O)N=C1CCCCCN12)NCCc1ccc(F)cc1 | -31.9% |  | 2.31 µM [falling, full curve, poor fit] |
| COc1cccc(C2NC(=O)NC(C)=C2C(=O)OCC2CCCCC2)c1 (stereo not drawn) | -0.493% | 32.6 µM [falling, single point] |  |
| CC(=O)c1cnc(SCC(=O)O)nc1C | -14% |  |  |
| CCc1ccc(NC(=O)CSc2nnc(-c3ccco3)o2)cc1 | 24% | 6.51 µM [falling, partial curve, poor fit] |  |
| CC(C)CCOCC(=O)Oc1ccccc1C(=O)O | 31% |  | 9.2 µM [rising, partial curve, poor fit] |
| Cc1ccc2[nH]c(C)cc(=S)c2c1 | -53.3% | 29.1 µM [falling, partial curve, poor fit] |  |

| Compound | cell number change | AC50 [1] | AC50 [2] |
| --- | --- | --- | --- |
| Cc1oc(/N=C/c2ccc(Cl)cc2)c(C#N)c1C | 7.26% | 1.64 µM [falling, full curve, poor fit] |  |
| N#CCC(=O)Nc1ccc(C(=O)N2CCN(c3ccccn3)CC2)cc1 | 12.6% |  |  |
| CC(NC(=O)COC(=O)CNS(=O)(=O)/C=C/c1ccccc1)c1ccccc1 (stereo not drawn) | -31% |  | 8.2 µM [falling, partial curve] |
| Cc1cccc(C)c1NC(=O)CN(C)C(=O)CC1CC2CCC1C2 (stereo not drawn) | -21.2% | 1.46 µM [falling, partial curve, poor fit] |  |
| C=CCNCC(=O)N1N=C(c2ccc3ccccc3c2)CC1c1ccc(OC)cc1 (stereo not drawn) | -3.54% |  | 1.46 µM [rising, partial curve] |
| CCN(CC)S(=O)(=O)c1ccc(Cl)c(C(=O)Nc2nnc(C)s2)c1 | 2.3% |  |  |
| Cn1c(SCC(=O)NCCc2ccccc2)ncc(C(=O)Nc2ccc(F)cc2)c1=O | 18.8% | 0.651 µM [rising, single point] |  |
| Cn1c(CSc2nc3ccccc3s2)n[nH]c1=S | 81% |  | 9.2 µM [rising, partial curve] |
| NC(=O)c1ccc(NC(=O)c2ccc(COc3ccccc3Br)cc2)cc1 | -9.13% | 0.0517 µM [falling, full curve, poor fit] |  |
| O=C(c1ccccc1)N1CCN(C(=O)c2cc3nc(-c4ccccc4)cc(C(F)(F)F)n3n2)CC1 | -3.36% |  |  |
| C=CCC1(C)C(=O)N(c2ccccc2)c2ccccc21 (stereo not drawn) | 4.35% | 6.51 µM [rising, single point] |  |
| COc1ccc2oc(C(=O)OCc3c(C)noc3C)c(C)c2c1 | 78.5% |  |  |
| O=C(Nc1nnc(C2CCCCC2)s1)C1CC(=O)N(c2ccccc2)C1 (stereo not drawn) |  | 29.1 µM [rising, single point] |  |
| O=C(Nc1cc2c(ccc3ccccc32)oc1=O)C1CCCCC1 | -80% | 18.4 µM [falling, partial curve] | 25.9 µM [falling, partial curve] |
| Cc1ccccc1/[N+]([O-])=C/c1cccs1 | -108% | 29.1 µM [falling, partial curve, poor fit] | 29.1 µM [falling, partial curve, poor fit] |
| CN(CC(=O)Nc1ccccc1C(=O)NC1CC1)Cc1ccc(Cl)cc1 | 31.2% | 16.4 µM [rising, partial curve, poor fit] | 29.1 µM [rising, single point] |
| CC(=O)c1ccc(NC(=O)CN2CCOCC2)cc1 |  | 29.1 µM [rising, single point] |  |
| CSC(=O)NC(=O)NC(=O)c1ccc([N+](=O)[O-])cc1 | 1.19% | 7.31 µM [falling, single point] | 6.51 µM [falling, single point] |
| Cc1ccc(S(=O)(=O)c2nc(N3CCOCC3)sc2Cl)cc1 |  | 0.82 µM [rising, single point] |  |
| COc1ccc(N2CCN(C(=O)COC(=O)CCc3ccccc3)CC2)cc1 | 6.92% | 6.51 µM [falling, single point] | 6.51 µM [falling, single point] |

Gathered by group: the entries above with two or more sulfur atoms.

| Compound | cell number change | AC50 [1] | AC50 [2] |
| --- | --- | --- | --- |
| CC(C)c1nc2sc3c(=O)[nH]c(=S)[nH]c3c2c2c1CCC2 |  | 18.4 µM [falling, partial curve] |  |
| CCN(c1ccccc1)S(=O)(=O)c1ccc(NC(=S)NC(=O)c2cccs2)cc1 | -20% |  |  |
| CCN(CC)S(=O)(=O)c1ccc(Cl)c(C(=O)Nc2nnc(C)s2)c1 | 2.3% |  |  |
| Cn1c(CSc2nc3ccccc3s2)n[nH]c1=S | 81% |  | 9.2 µM [rising, partial curve] |
| Cc1ccc(S(=O)(=O)c2nc(N3CCOCC3)sc2Cl)cc1 |  | 0.82 µM [rising, single point] |  |

Additional entries follow:

| Compound | cell number change | AC50 [1] | AC50 [2] |
| --- | --- | --- | --- |
| COc1ccc(S(=O)(=O)NCc2ccccn2)c(C)c1C | 1.4% | 4.11 µM [rising, single point] |  |
| COc1ccc(C(=O)NC(=S)N2CCOCC2)cc1[N+](=O)[O-] |  | 2.06 µM [rising, partial curve] |  |
| C=CCNC(=S)Nc1ccc(N(C)C)cc1 | 0.529% |  | 6.51 µM [falling, single point] |
| CC(C)(C)c1ccc(C(=O)Nc2ccccc2Cl)cc1 | -8.66% | 0.0651 µM [falling, full curve, poor fit] | 0.731 µM [rising, single point] |
| Cc1cc(C(=O)NCC(=O)OC(C)C(=O)N2CCOCC2)ccc1[N+](=O)[O-] (stereo not drawn) | -5.26% | 6.51 µM [falling, single point] |  |
| COc1cc2c(cc1OC)-c1cc(OCc3cccnc3)nc(=O)n1CC2 | 175% | 29.1 µM [rising, single point] | 20.6 µM [rising, single point] |
| CS(=O)(=O)Nc1ccc(C(=O)NC2CCCC2)cc1 |  | 3.66 µM [falling, partial curve] |  |
| CCC(=O)NC(NC(=S)Nc1cccc2cccnc12)C(Cl)(Cl)Cl (stereo not drawn) | 28.9% | 3.26 µM [rising, partial curve] | 3.26 µM [rising, single point] |
| CN(c1ccccc1)S(=O)(=O)c1cccc(C(=O)Nc2cccc(C(=O)NC3CC3)c2)c1 |  |  | 6.51 µM [falling, single point] |
| O=CN1CCN(S(=O)(=O)c2ccc(S(=O)(=O)NC3CCCCC3)cc2)CC1 | -12.5% | 1.16 µM [falling, single point] |  |
| CCOC(=O)c1cc2c(ccn2C)n1Cc1ccccc1Cl | -23.6% | 20.6 µM [falling, single point] |  |
| CCN1C(=O)c2ccccc2Sc2ccc(C(=O)NC(C)C)cc21 | 4.37% |  |  |
| Cc1ccc(C(=O)NC(=S)Nc2cccc3c(C)cc(C)nc23)cc1 | -24.8% |  |  |
| COCCN(C(=O)COC(=O)c1oc2ccc(OC)cc2c1C)c1c(N)n(Cc2ccccc2)c(=O)[nH]c1=O | -25.5% | 8.2 µM [falling, partial curve] | 2.31 µM [falling, full curve, poor fit] |
| COc1cccc(Cn2c(C3CC3)nc3ccc(NC(=O)c4ccco4)cc3c2=O)c1 | -9.64% | 1.03 µM [rising, partial curve] |  |
| CCOC(=O)N/N=C/c1ccc(OCCSc2ccc(Cl)cc2)c(OCC)c1 | 24.1% | 6.51 µM [rising, partial curve, poor fit] | 3.26 µM [rising, partial curve] |
| CCN(CC)S(=O)(=O)c1ccc(NC(=O)Nc2cccc(C(F)(F)F)c2)cc1 | -83.7% |  | 16.4 µM [falling, partial curve] |
| CC1CCCN(C(=O)COC(=O)c2cc(-c3cccs3)nn2-c2ccccc2)C1 (stereo not drawn) | 12% |  |  |
| C=CCn1c(SCC(=O)NCc2ccco2)nc2sc3c(c2c1=O)CCC3 | -31.8% | 29.1 µM [falling, single point] | 0.0058 µM [falling, full curve, poor fit] |
| Cc1ccc(SCC(=O)Nc2ccc(N3CCOCC3)cc2)cc1C | 5.22% | 1.03 µM [rising, partial curve, poor fit] |  |
